The target of the experiment is IGF2BP3 (mouse (endogenous in TM4)) (UniProt Q9CPN8). Nature of the experiment: co-IP; cells lysed, lysate incubated with primary antibody at 4 °C overnight, Protein A + G beads 1 h at room temperature, washed with 1× TBS, eluted for SDS-PAGE (Beyotime kit P2179S).

Protein sequences, listed by entry. Tags and fused reporters are not part of them.
UniProt Q9CPN8: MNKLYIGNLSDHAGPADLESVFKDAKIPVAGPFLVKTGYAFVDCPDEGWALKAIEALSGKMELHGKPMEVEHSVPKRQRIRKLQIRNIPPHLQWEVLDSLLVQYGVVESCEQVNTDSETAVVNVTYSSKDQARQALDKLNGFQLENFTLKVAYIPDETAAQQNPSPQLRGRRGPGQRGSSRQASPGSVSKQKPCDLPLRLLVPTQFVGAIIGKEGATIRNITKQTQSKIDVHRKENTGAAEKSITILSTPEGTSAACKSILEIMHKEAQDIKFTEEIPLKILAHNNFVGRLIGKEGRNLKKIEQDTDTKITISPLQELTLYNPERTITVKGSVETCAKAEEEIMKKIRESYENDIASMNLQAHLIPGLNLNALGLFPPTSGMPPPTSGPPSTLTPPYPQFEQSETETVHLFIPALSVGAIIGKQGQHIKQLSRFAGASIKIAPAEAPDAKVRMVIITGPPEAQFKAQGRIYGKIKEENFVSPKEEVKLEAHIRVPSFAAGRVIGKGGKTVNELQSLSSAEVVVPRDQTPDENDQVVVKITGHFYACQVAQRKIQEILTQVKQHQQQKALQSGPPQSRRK
UniProt Q5SF07: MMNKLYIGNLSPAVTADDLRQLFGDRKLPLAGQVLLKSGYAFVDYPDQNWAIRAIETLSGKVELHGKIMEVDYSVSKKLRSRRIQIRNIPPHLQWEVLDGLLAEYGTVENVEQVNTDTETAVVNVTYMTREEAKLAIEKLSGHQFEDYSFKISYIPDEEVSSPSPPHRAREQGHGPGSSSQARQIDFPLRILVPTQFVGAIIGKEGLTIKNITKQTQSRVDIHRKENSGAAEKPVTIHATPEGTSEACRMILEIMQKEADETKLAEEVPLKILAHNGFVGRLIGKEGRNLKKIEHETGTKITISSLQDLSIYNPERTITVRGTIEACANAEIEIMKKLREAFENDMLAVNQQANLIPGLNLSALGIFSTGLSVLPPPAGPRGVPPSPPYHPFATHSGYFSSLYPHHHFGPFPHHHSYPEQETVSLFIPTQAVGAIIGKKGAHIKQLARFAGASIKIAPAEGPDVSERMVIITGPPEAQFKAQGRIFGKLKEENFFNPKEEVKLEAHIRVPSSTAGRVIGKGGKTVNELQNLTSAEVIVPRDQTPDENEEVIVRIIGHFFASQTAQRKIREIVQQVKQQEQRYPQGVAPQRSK
UniProt O88477: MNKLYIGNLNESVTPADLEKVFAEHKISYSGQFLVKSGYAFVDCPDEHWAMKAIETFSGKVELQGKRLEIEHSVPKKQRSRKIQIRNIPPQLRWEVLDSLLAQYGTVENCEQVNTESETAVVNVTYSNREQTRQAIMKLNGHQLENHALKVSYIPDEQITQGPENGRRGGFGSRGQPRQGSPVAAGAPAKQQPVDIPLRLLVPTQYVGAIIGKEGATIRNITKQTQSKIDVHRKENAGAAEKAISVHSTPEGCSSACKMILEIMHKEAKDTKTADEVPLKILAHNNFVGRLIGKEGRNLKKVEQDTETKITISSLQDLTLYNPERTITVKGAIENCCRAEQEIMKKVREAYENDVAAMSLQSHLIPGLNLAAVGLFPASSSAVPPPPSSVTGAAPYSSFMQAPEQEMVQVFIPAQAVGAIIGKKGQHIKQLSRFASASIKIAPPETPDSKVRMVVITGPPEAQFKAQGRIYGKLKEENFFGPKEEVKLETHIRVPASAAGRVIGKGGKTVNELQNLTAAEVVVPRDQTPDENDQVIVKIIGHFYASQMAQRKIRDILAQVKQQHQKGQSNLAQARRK

Results are given in words; binding and its absence hold for the method and conditions named. Binding seen in cells or lysates may run through a third protein. Some entries that bind do so weakly or less than the wild type.

IGF2BP2 (from UniProt Q5SF07 1-592): the binding result is on record as “binds”.

Consider IGF2BP1 (from UniProt O88477 1-577), for which the binding entry is “binds”.

The record behind these values is publication PMC9682758.
